{"source": "PubChem BioAssay AID504764, Drosophila RNAi Screening Center | 2011", "assay": "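Genes whose knock-down alters Notch-dependent transcription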 (primary screen)", "cell system": "Drosophila Kc167 cells", "reagent": "long dsRNA against Drosophila genes", "time to read-out": "about 5 days (4 days dsRNA, then 24 h after transfection)", "challenge": "transfection of constitutively active membrane-tethered Notch lacking the extracellular domain, read 24 h later", "read-out": "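Firefly luciferase from an E(spl)m3 reporter with active Notch, plus control-promoter and uninduced reporter wells for normalisation; unnormalised counts, duplicate wells a and b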", "direction": "induced reporter light, run 1, well a and induced reporter light, run 1, well b: higher = more light from the Notch target reporter with active Notch; control promoter light, run 1, well a and control promoter light, run 1, well b: higher = more light from the viral control promoter (cell number, transfection, viability); uninduced reporter light, run 1, well a: higher = more light from the Notch target reporter without active Notch", "active means": "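Wells with low control signal or poorly matching duplicates excluded; duplicates averaged; per source plate, z beyond ±2 for induced/control log2 ratio or beyond ±1.8 for induced/uninduced marks a hit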", "calls": "active = modifier hit (raised or lowered Notch signal); inactive = not a hit", "note": "The screen tested about 22,000 reagents; below is an unselected part of those with a known target gene and a result. In the full data, 403 (1.9%) got an active call. 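Unnormalised raw counts per well; ratio z-scores behind the hit calls and whether each hit raises or lowers signal are not deposited.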 The numbers tell different reagents against one gene apart. Not given: the amount of reagent."}
{"gene":"fkh (fork head)","reagent no.":1,"induced reporter light, run 1, well a":1.46e5,"induced reporter light, run 1, well b":1.34e5,"control promoter light, run 1, well a":1.92e5,"control promoter light, run 1, well b":1.64e5,"uninduced reporter light, run 1, well a":11000,"Outcome":"inactive"}
{"gene":"CG17190","reagent no.":1,"induced reporter light, run 1, well a":1.84e5,"induced reporter light, run 1, well b":1.79e5,"control promoter light, run 1, well a":2.18e5,"control promoter light, run 1, well b":2.17e5,"uninduced reporter light, run 1, well a":11400,"Outcome":"inactive"}
{"gene":"CG6661","reagent no.":1,"induced reporter light, run 1, well a":1.55e5,"induced reporter light, run 1, well b":1.69e5,"control promoter light, run 1, well a":1.35e5,"control promoter light, run 1, well b":1.61e5,"uninduced reporter light, run 1, well a":13265,"Outcome":"inactive"}
{"gene":"CG6901","reagent no.":1,"induced reporter light, run 1, well a":2.40e5,"induced reporter light, run 1, well b":2.19e5,"control promoter light, run 1, well a":2.35e5,"control promoter light, run 1, well b":2.49e5,"uninduced reporter light, run 1, well a":18915,"Outcome":"inactive"}
{"gene":"Idgf2 (Imaginal disc growth factor 2)","reagent no.":1,"induced reporter light, run 1, well a":1.85e5,"induced reporter light, run 1, well b":2.15e5,"control promoter light, run 1, well a":1.88e5,"control promoter light, run 1, well b":1.78e5,"uninduced reporter light, run 1, well a":17525,"Outcome":"inactive"}
{"gene":"CG45002","reagent no.":1,"induced reporter light, run 1, well a":56860,"induced reporter light, run 1, well b":66890,"control promoter light, run 1, well a":71115,"control promoter light, run 1, well b":53305,"uninduced reporter light, run 1, well a":9895,"Outcome":"inactive"}
{"gene":"mRpL28 (mitochondrial ribosomal protein L28)","reagent no.":1,"induced reporter light, run 1, well a":1.17e5,"induced reporter light, run 1, well b":1.03e5,"control promoter light, run 1, well a":99760,"control promoter light, run 1, well b":1.03e5,"uninduced reporter light, run 1, well a":7765,"Outcome":"inactive"}

Continued, starting with the last 2 of the part before.
{"gene":"CG45002","reagent no.":1,"induced reporter light, run 1, well a":56860,"induced reporter light, run 1, well b":66890,"control promoter light, run 1, well a":71115,"control promoter light, run 1, well b":53305,"uninduced reporter light, run 1, well a":9895,"Outcome":"inactive"}
{"gene":"mRpL28 (mitochondrial ribosomal protein L28)","reagent no.":1,"induced reporter light, run 1, well a":1.17e5,"induced reporter light, run 1, well b":1.03e5,"control promoter light, run 1, well a":99760,"control promoter light, run 1, well b":1.03e5,"uninduced reporter light, run 1, well a":7765,"Outcome":"inactive"}
{"gene":"CG14312","reagent no.":1,"induced reporter light, run 1, well a":2.37e5,"induced reporter light, run 1, well b":1.55e5,"control promoter light, run 1, well a":2.09e5,"control promoter light, run 1, well b":2.14e5,"uninduced reporter light, run 1, well a":12050,"Outcome":"inactive"}
{"gene":"CG11504","reagent no.":1,"induced reporter light, run 1, well a":1.71e5,"induced reporter light, run 1, well b":1.78e5,"control promoter light, run 1, well a":2.46e5,"control promoter light, run 1, well b":2.22e5,"uninduced reporter light, run 1, well a":11655,"Outcome":"inactive"}
{"gene":"mRpL21 (mitochondrial ribosomal protein L21)","reagent no.":1,"induced reporter light, run 1, well a":86080,"induced reporter light, run 1, well b":87865,"control promoter light, run 1, well a":97810,"control promoter light, run 1, well b":59615,"uninduced reporter light, run 1, well a":5410,"Outcome":"inactive"}
{"gene":"Ctps (CTP synthase)","reagent no.":1,"induced reporter light, run 1, well a":1.62e5,"induced reporter light, run 1, well b":1.44e5,"control promoter light, run 1, well a":2.82e5,"control promoter light, run 1, well b":2.06e5,"uninduced reporter light, run 1, well a":18620,"Outcome":"inactive"}
{"gene":"Ctps (CTP synthase)","reagent no.":2,"induced reporter light, run 1, well a":1.29e5,"induced reporter light, run 1, well b":1.47e5,"control promoter light, run 1, well a":1.01e5,"control promoter light, run 1, well b":1.08e5,"uninduced reporter light, run 1, well a":10550,"Outcome":"inactive"}
{"gene":"Ctps (CTP synthase)","reagent no.":3,"induced reporter light, run 1, well a":1.16e5,"induced reporter light, run 1, well b":1.01e5,"control promoter light, run 1, well a":1.78e5,"control promoter light, run 1, well b":2.25e5,"uninduced reporter light, run 1, well a":10180,"Outcome":"inactive"}
{"gene":"CG33673","reagent no.":1,"induced reporter light, run 1, well a":84865,"induced reporter light, run 1, well b":78475,"control promoter light, run 1, well a":1.32e5,"control promoter light, run 1, well b":1.22e5,"uninduced reporter light, run 1, well a":8605,"Outcome":"inactive"}
{"gene":"emc (extra macrochaetae)","reagent no.":1,"induced reporter light, run 1, well a":26345,"induced reporter light, run 1, well b":23415,"control promoter light, run 1, well a":33875,"control promoter light, run 1, well b":32760,"uninduced reporter light, run 1, well a":6240,"Outcome":"inactive"}
{"gene":"Spf45","reagent no.":1,"induced reporter light, run 1, well a":36375,"induced reporter light, run 1, well b":32375,"control promoter light, run 1, well a":40065,"control promoter light, run 1, well b":38005,"uninduced reporter light, run 1, well a":2825,"Outcome":"inactive"}
{"gene":"yl (yolkless)","reagent no.":1,"induced reporter light, run 1, well a":82505,"induced reporter light, run 1, well b":91740,"control promoter light, run 1, well a":88100,"control promoter light, run 1, well b":87535,"uninduced reporter light, run 1, well a":11610,"Outcome":"inactive"}
{"gene":"Cam (Calmodulin)","reagent no.":1,"induced reporter light, run 1, well a":88560,"induced reporter light, run 1, well b":87290,"control promoter light, run 1, well a":1.15e5,"control promoter light, run 1, well b":1.26e5,"uninduced reporter light, run 1, well a":10055,"Outcome":"inactive"}
{"gene":"Cam (Calmodulin)","reagent no.":2,"induced reporter light, run 1, well a":70030,"induced reporter light, run 1, well b":64225,"control promoter light, run 1, well a":1.17e5,"control promoter light, run 1, well b":87520,"uninduced reporter light, run 1, well a":6690,"Outcome":"inactive"}
